We go through 28 compounds from the supplement of paper PMC12578635.

Each structure is given as a SMILES string. ± gives the standard deviation of the averaged measurements. This is one part of the list. Repeats are few or missing, and single values can be far off.

The assay has as its system RAW 264.7 macrophages infected with S. aureus JE2-lux. Description: host macrophage viability (CellTiter-Fluor) relative to DMSO vehicle; higher = more viable host cells. The settings on record: 10 µM; treatment time 4 h; gentamicin 50 µg/ml.
In the case of `O=C(CCn1c(=O)sc2ccccc21)Nc1ccccc1F`, the host macrophage viability was 118 ± 14%.
As for `COc1cccc(-c2nnc(SCC(=O)Nc3ccc(C(C)=O)cc3)n2-n2cccc2)c1`, the host macrophage viability turned out to be 92.5%.
To `Cc1n[nH]c(=O)nc1N/N=C/c1ccc(N(C)C)cc1` belongs 113%; to `O=C(Nc1ccccc1-n1cccc1)c1cnccn1`, 104%.
Take `COCCn1c(SCC(=O)Nc2cccc([N+](=O)[O-])c2)nc2c(c1=O)SCC2`: the host macrophage viability was 124%.
To `O=C(CS(=O)(=O)c1c[nH]c2ccccc12)N1CCc2ccccc21` belongs 124%; to `CCc1cccc2sc(N(Cc3ccccn3)C(=O)c3ccc(C#N)cc3)nc12`, 139%.
Consider `CCOc1ccccc1NC(=O)CC1Sc2ccc(C(F)(F)F)cc2NC1=O` (stereo not drawn), for which the host macrophage viability turned out to be 132%.
To `Cc1ccc(Nc2nc(Nc3ccc4c(c3)OCO4)nc(N3CCOCC3)n2)cc1C` belongs 105%.
Regarding `COCCn1c2ccccc2n2c(=O)n(Cc3ccc(F)cc3)nc12`, the host macrophage viability worked out at 125%.
To `Cc1ccc2c(c1)NC(SCC(=O)Nc1ccc(C)c(F)c1)=NS2(=O)=O` belongs 123%.
As to `Cc1ccnc(SCc2cc(=O)c(OC(=O)c3ccc(Br)o3)co2)n1`, the host macrophage viability is 109%.
For `Cn1c(=O)c2c(nc(CN3CCC(C(N)=O)CC3)n2Cc2ccccc2)n(C)c1=O` the value was 119%; for `CC1=C(C(=O)Nc2ccc(Cl)cc2)C(c2ccco2)C(C#N)=C(SCc2ccccc2)N1` (stereo not drawn), 105%.
Take `CC(=O)c1cccc(N(C(=O)c2cnccn2)C(C(=O)NC2CCCC2)c2cccs2)c1` (stereo not drawn): the host macrophage viability was determined as 105%.
For the compound `C=CCN1C(=O)/C(=C/c2ccco2)S/C1=N/c1nccs1`, the host macrophage viability is 110%.
Turning to `CCOC(=O)N1CCN(C(=O)CCCn2c(=S)[nH]c3c([nH]c4ccc(OC)cc43)c2=O)CC1`, the host macrophage viability worked out at 98.3%.
To `COc1cccc2c1Oc1nc(-c3ccccc3)[nH]c(=S)c1C2` belongs 122%.
Consider `CCn1nc(-n2cnnc2)c(NS(=O)(=O)c2ccc(C3CCCCC3)cc2)c1C`, for which the host macrophage viability worked out at 109%.
As for `COc1ccccc1NC(=O)N1CCCC(C(=O)NCc2ccc(F)cc2)C1` (stereo not drawn), the host macrophage viability was 118%.
Regarding `Cc1cc2cc(CCNC(=O)c3ccc(S(=O)(=O)N4CCOCC4)cc3)c(=O)[nH]c2cc1C`, the host macrophage viability was 135%.
For `O=C(CSc1nc(-c2ccccc2Cl)ns1)Nc1ccc2c(c1)OCO2`, the host macrophage viability was 108 ± 6.9%.
For `Cc1nc2c(ccc3nc(NC(=O)c4ccco4)sc32)s1` the value was 109 ± 10%; for `O=C(CNc1ccc(S(=O)(=O)C(F)(F)F)cc1[N+](=O)[O-])NC1CCS(=O)(=O)C1` (stereo not drawn), 97.2%.
To `CCOC(=O)c1ccc(Nc2nnc3nc(C)cc(C)n23)cc1` belongs 103%.
For the compound `CCOc1ccc(-c2nc3c(c(SCC(N)=O)n2)Cc2cccc(C)c2O3)cc1`, the host macrophage viability is 132%.
For the compound `CCCc1cc(=O)[nH]c(SCC(=O)NCc2ccc3c(c2)OCO3)n1`, the host macrophage viability was 106%.
On to `CCCc1cc(=O)[nH]c2nnc(SCC(=O)N(C)c3ccccc3)n12`, for which the host macrophage viability worked out at 93.3%.
